Molecules are shown by their SMILES. Some of the results follow. Some of these compounds have results that are not shown, active ones among them.

Experimental findings from PubChem BioAssay AID555 (SRMLSC, 2006) are described below.

The test relates to mevalonate kinase [Streptococcus pneumoniae D39]. Description: S. pneumoniae MK inhibitors, primary screen, biochemical, PK/LDH-coupled NADH absorbance (AID 555). Conditions: purified MK, PK/LDH-coupled NADH absorbance 340 nm; measured here: pilot screen replicates; at 10 µM; stronger effect = higher value.
Consider `O=C(OC1CN2CCC1CC2)C(CO)(c1ccccc1)c1ccccc1` (stereo unspecified), for which the inhibition is 0%.
